The text below walks through data of paper PMC5707026.

By UniProt entry, the sequences of proteins in these tests, tags left out. Where a name states a change or a piece, a line headed by the entry shows the natural chain unless it says otherwise.
UniProt Q07008: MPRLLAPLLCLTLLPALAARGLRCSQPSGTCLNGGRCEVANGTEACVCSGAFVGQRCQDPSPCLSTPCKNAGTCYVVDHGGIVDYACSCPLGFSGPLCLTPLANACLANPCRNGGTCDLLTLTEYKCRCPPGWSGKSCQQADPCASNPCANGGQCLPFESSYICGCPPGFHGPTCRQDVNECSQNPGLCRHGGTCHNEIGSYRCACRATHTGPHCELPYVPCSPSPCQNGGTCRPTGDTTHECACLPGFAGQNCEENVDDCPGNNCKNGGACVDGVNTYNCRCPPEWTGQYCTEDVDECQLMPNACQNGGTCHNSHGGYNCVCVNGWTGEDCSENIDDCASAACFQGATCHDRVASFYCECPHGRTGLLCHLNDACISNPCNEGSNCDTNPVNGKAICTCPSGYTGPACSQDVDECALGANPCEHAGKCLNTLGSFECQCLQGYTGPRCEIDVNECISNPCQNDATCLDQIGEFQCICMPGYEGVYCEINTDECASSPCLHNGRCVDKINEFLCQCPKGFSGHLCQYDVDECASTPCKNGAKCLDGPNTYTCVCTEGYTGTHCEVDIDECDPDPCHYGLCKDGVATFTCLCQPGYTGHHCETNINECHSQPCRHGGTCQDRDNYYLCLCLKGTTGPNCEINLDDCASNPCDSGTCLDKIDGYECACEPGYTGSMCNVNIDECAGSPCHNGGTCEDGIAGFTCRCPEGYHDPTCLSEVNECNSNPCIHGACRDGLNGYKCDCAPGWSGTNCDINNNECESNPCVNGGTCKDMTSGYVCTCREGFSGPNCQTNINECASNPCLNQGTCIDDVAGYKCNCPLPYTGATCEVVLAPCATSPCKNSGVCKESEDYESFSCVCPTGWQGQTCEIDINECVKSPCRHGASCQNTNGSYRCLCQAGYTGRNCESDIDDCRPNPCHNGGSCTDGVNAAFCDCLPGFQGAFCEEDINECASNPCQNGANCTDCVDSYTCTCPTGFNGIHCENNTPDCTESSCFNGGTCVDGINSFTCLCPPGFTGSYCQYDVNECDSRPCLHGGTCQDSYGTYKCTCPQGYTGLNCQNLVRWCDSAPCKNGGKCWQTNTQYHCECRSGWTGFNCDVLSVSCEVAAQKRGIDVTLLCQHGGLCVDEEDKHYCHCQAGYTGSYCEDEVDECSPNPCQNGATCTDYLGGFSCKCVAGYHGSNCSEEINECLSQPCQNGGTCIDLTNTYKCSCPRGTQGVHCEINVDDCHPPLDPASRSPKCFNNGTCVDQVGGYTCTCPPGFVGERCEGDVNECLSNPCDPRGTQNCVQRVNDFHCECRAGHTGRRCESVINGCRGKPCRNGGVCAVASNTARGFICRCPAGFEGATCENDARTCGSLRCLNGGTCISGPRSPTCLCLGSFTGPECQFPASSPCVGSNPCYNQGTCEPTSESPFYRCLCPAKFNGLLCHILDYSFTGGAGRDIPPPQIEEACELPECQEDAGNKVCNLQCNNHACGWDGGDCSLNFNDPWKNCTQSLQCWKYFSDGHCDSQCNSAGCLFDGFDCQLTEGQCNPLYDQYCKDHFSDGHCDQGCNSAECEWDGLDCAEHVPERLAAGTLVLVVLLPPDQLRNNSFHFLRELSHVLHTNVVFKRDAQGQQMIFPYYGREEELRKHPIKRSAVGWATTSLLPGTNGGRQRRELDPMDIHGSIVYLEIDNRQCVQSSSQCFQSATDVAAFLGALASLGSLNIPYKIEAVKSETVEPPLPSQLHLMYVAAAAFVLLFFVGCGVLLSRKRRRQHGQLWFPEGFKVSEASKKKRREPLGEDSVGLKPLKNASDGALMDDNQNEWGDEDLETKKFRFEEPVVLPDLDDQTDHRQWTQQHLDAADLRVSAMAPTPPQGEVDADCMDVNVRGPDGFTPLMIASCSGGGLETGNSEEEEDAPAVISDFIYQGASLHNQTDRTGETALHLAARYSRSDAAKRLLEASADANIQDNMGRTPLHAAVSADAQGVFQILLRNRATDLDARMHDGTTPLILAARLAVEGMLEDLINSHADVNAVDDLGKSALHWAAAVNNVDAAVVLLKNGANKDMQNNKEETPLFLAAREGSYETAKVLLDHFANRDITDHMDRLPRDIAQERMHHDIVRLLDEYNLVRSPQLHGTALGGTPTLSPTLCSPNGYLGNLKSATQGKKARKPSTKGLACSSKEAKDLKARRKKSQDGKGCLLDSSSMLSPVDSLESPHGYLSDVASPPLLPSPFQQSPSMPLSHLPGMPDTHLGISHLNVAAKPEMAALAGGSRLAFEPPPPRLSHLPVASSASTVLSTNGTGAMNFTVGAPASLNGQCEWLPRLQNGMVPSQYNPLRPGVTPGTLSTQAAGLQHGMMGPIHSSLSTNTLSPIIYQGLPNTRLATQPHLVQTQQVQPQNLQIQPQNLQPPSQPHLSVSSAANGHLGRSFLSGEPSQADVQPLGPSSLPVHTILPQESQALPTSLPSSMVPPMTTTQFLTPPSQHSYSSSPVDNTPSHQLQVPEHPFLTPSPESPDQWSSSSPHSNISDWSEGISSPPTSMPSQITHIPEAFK

The target in the experiment is Notch1 transmembrane intracellular domain (Notch1-TMIC) (rat (endogenous in rat brain)) (UniProt Q07008). Nature of the experiment: co-IP; brain samples of ICH rats transfected in vivo with GFP-Botch plasmids, lysed in ice-cold RIPA buffer; lysate with specific antibodies or normal IgG 1 h at 4 °C, protein A+G agarose overnight at 4 °C, immunoblot; which antibody precipitated is not stated. (In general: Immunoblotting shows a protein as a band on a membrane.)

These are yes or no findings as the source states them, for the method shown. Binding seen in cells or lysates may run through a third protein. Sequences can lack the tags named with a protein.

B1: wild type GFP-Botch (rat Botch, NPG7/Chac1) (protein, UniProt B3STU3 1-222)
chain: MKQESAAQSTPPPSLSPAPSAQPSWEDGDPQALWIFGYGSLVWKPDFAYSDSRVGFVRGYSRRFWQGDTFHRGSDKMPGRVVTLLEDHEGCTWGVAYQVRGEQVSEALKYLNVREAVLGGYDTKEVTFYPQDTPDQPLTALAYVATPQNPGYLGPAPEEVIATQILACRGFSGHNLEYLLRLADFMQLCGPQAQDEHLEAIVDAVGSLLPCSYLSEQPLALI
Regarding B1, the binding entry is reported as “no binding”.
